# According to PubChem BioAssay AID1688 (National Center for Advancing Translational Sciences (NCATS), 2009):
# The campaign covered roughly 220,000 compounds. About 2,400 (1.1%) were called active. Inconclusive results, whose numbers are uncertain, are shown with a selection of clear calls. Calls come from the whole dose curve; as a rule, active = well fitted inhibition curve with a large enough effect; inconclusive = small, poorly fitted or top-dose-only effect, or effect the other way; inactive = no such curve, though single readings can be large or run the other way. Potencies of inconclusive entries are doubtful fits and often do not repeat.
# Assay: qHTS Multiplex Assay to Identify Dual Action Probes in a Cell Model of Huntington: Aggregate Formation (GFP); note: nearly all actives have a fitted effect of over 60% in size
# Conditions: PC12 HttQ103-GFP aggregates, Acumen cytometry, 40 h; activity change, negative = inhibition: at 46.1 µM (top of the series) unless noted
# Outline: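 PC12 cells with ecdysone-inducible HTT exon1 Q103-GFP, induced by 100 nM tebufenozide, given compounds in a concentration series. GFP aggregates (1–25 um, 6 SD above background) counted in lysates by laser-scanning cytometry, 488 nm excitation.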
# % is set by controls: 0 for no effect and ±100 for the full control effect; potency is the fitted concentration of half-maximal effect.
Structure (SMILES),Potency,"activity change, negative = inhibition"
CC(C)(C)c1ccccc1OCCCCCn1ccnc1,"inconclusive: 25.1 µM [inhibitor, single point]",–
COc1ccc(S(=O)(=O)Nc2ccc(Oc3ncccn3)c(Cl)c2)cc1,–,inactive: -12%
Cc1ccc(NC(=O)c2nc[nH]c2C(=O)NCC(=O)OC(C)(C)C)cc1,–,inactive: -23.8% [at 9.22 µM]
CC1CCc2c(sc(NC(=O)c3ccc(Cn4cc([N+](=O)[O-])cn4)o3)c2C#N)C1 (stereo not drawn),–,inactive: -10.6%
Cc1cc(C)n(-c2nc3ccccc3nc2N2CCCCCC2)n1,"inconclusive: 1.26 µM [inhibitor, single point]",–
COc1ccc(S(=O)(=O)Nc2ccccc2C(=O)Nc2nc(-c3ccc(F)cc3)cs2)cc1OC,active: 10 µM,–
Cc1ccsc1-c1n[nH]c(=S)n1CC(C)C,–,inactive: 30.3%
O=C(CSc1ncnc2ccccc12)NCCCO,"inconclusive: 15.8 µM [activator, single point]",–
CCOC(=O)N1CCN(S(=O)(=O)c2ccc(C(=O)NNc3nc4c(C)cccc4s3)cc2)CC1,"inconclusive: 5.62 µM [inhibitor, full curve, poor fit]",–
O=[N+]([O-])c1ccc(C(=S)N2CCCC2)cc1,–,inactive: -2.22%
CCCC(=O)NC(c1ccco1)c1cc([N+](=O)[O-])c2cccnc2c1O (stereo not drawn),"inconclusive: 7.08 µM [inhibitor, partial curve]",–
Nc1nnc(CCOc2ccccc2Cl)s1,"inconclusive: 5.62 µM [inhibitor, single point]",–
Cc1ccc(C)c2[nH]c(=O)c(CN(Cc3ccco3)C(=O)Nc3ccccc3)cc12,"inconclusive: 22.4 µM [inhibitor, single point]",–
CCCCSc1nc(C)cc(C)c1S(=O)(=O)c1ccccc1C,"inconclusive: 35.5 µM [inhibitor, single point]",–
CCOc1ccc(C(=O)Nc2cccc(NC(=O)c3cccs3)c2)cc1[N+](=O)[O-],"inconclusive: 25.1 µM [inhibitor, single point]",–
COc1cccc(-c2nnn(CC(=O)NC3CCCC3)n2)c1OC,"inconclusive: 6.31 µM [activator, single point]",–
COc1ccccc1/C=C\C=N\NC(=O)c1ccco1,"inconclusive: 22.4 µM [activator, partial curve]",–
CCCCNC(=O)CNC(=S)N(CCCN1CCOCC1)Cc1cccs1,–,inactive: -14.1%
COc1ccc(S(=O)(=O)N(Cc2ccccc2)Cc2nc(-c3ccccc3)no2)cc1,"inconclusive: 5.62 µM [inhibitor, single point]",–
Cc1cc(=O)c2c(O)c3c(O)cc(=O)c4c3c3c(cc(O)c1c23)C(C)(C)C=4O,active: 3.16 µM,–
Cc1cc(C)c(S(=O)(=O)Nc2ccc(O)cc2)cc1C,–,inactive: 23.4%
Cc1sc(N/N=C/c2cccnc2)nc1-c1ccccc1,"inconclusive: 14.1 µM [inhibitor, single point]",–
CC(C)(C)c1ccc(-c2cn(-c3ccc(Br)cc3)c3[n+]2CCCS3)cc1,active: 1.26 µM,–
CC(=O)Nc1ccc(S(=O)(=O)N2CCN=C2SCc2cccnc2)cc1,–,inactive: -19.8%

# Reformatted tab-delimited: entries from further up.
Structure (SMILES)	Potency	activity change, negative = inhibition
CC1CCc2c(sc(NC(=O)c3ccc(Cn4cc([N+](=O)[O-])cn4)o3)c2C#N)C1 (stereo not drawn)	–	inactive: -10.6%
COc1ccc(S(=O)(=O)N(Cc2ccccc2)Cc2nc(-c3ccccc3)no2)cc1	inconclusive: 5.62 µM [inhibitor, single point]	–

# (continued)

Structure (SMILES),Potency,"activity change, negative = inhibition"
CCn1c(C)cc(=S)c2ccccc21,"inconclusive: 35.5 µM [inhibitor, single point]",–
COc1ccc(S(=O)(=O)N2CCN(c3ccc(C)cc3C)CC2)cc1OC,active: 35.5 µM,–
Clc1cncc(Cl)c1N/N=C/c1ccncc1,"inconclusive: 25.1 µM [inhibitor, single point]",–
CCC(=O)N1C(=O)C2(Nc3ccccc3N2)c2ccccc21,"inconclusive: 1.26 µM [activator, partial curve]",–
Cc1cc(S(=O)(=O)n2cnc3cc([N+](=O)[O-])ccc32)ccc1Cl,"inconclusive: 5.62 µM [inhibitor, single point]",–
COc1cc(C2NC(=O)C(C#N)=C(S)N2c2ccc(C)cc2)ccc1OC(C)C (stereo not drawn),"inconclusive: 3.55 µM [inhibitor, single point]",–
COc1ccc(C2=NCC(CSc3nnc(-c4ccc5c(c4)OCO5)o3)S2)cc1 (stereo not drawn),"inconclusive: 35.5 µM [inhibitor, single point]",–
O=C(Nc1cc(=O)[nH]c2ncnn12)c1ccc(Cl)cc1Cl,–,inactive: 19%
COc1ccc(N/C=C2/CCCCC2=O)cc1,–,inactive: 5.89%
Cc1cc(C)cc(-n2c3nc4ccccc4nc3c3c(=O)n(Cc4ccco4)cnc32)c1,–,inactive: 19%
C/C(CCc1ccc2c(c1)OCO2)=N\NC(=O)c1ccccc1,–,inactive: 11.7%
Cc1nc2ccc(NC(=O)c3ccc(F)c(S(=O)(=O)N4CCOCC4)c3)cc2s1,"inconclusive: 35.5 µM [inhibitor, single point]",–
CCOc1ccc(NC(=S)Nc2ccc3nsnc3c2)cc1,active: 3.55 µM,–
COC(=O)c1ccc(-c2ccc(OC)c([C@H]3[C@H]4C=CC[C@@H](C)[C@@H]4C(=O)N3Cc3ccccc3)c2)cc1,"inconclusive: 0.501 µM [inhibitor, full curve, poor fit]",–
COC(=O)c1[nH]c2ccc(C)cc2c1NC(=O)CN1CCN(c2ccccc2)CC1,"inconclusive: 31.6 µM [inhibitor, single point]",–
N#C/C(C(=O)N1CCCCC1)=C1/N=C(N)c2ccccc21,–,inactive: -17.5%
CCOC(=O)c1ccc(NC(=O)c2n[nH]c(=O)c3ccccc23)cc1,–,inactive: 13.8%
CCOc1ccc(N=c2cc(-c3ccc(OC)cc3)oc3ccccc23)cc1,active: 3.16 µM,–
COc1cc(S(=O)(=O)Nc2ccc(C)cc2)ccc1N=Cc1c(C)c(C#N)c(=O)n(C)c1O,"inconclusive: 17.8 µM [inhibitor, single point]",–
CCn1c(SCC(=O)N2CCN(c3ccccc3)CC2)nnc1-c1ccncc1,–,inactive: -32.7%
COc1ccc(Nc2ncnc3scc(-c4ccc(OC)cc4)c23)cc1,"inconclusive: 5.62 µM [inhibitor, single point]",–
CCc1cc(C(=O)NNC(=O)CCl)sc1C,"inconclusive: 35.5 µM [inhibitor, single point]",–
Cc1cc(N2C(=O)NC(=O)CC2C)c(C)cc1C(C)C (stereo not drawn),–,inactive: 5.82%
O=C(Nc1nnc(-c2ccc(Cl)cc2)o1)Nc1ccccc1Cl,"inconclusive: 1.26 µM [inhibitor, single point]",–
